Data reported in patent publication US6620583B2, “Diagnostic screens for type 1 diabetes (IDDM)” (Boston Medical Center Corporation, priority 1998, dated 2003).
At least one compound was matched to its structure with a doubt left. Ends that are not written are not given here.

Tested on: dermal fibroblasts from type I diabetic patients and matched controls
Test: Bradykinin-induced Ca2+ mobilization in fura-2 AM loaded fibroblasts (fluorescence spectrophotometry)
Type: cell-based, human
Conditions: cells from both control and diabetic donors
Description: The following examples describe novel findings upon which the present invention is based, at least in part. In particular, the present inventors have determined the effects of tumor necrosis factor alpha (TNF-α) treatment, and the diabetic environment (elevated glucose and fatty acid), on bradykinin-induced Ca^2+ mobilization in dermal fibroblasts from type I diabetic patients and matched controls. Fibroblasts were exposed to TNF-α (10 ng/ml) for up to 48 hours. Cells in suspension were then loaded with fura-2 acetoxymethyl ester, and bradykinin-induced Ca^2+ mobilization was measured using fluorescence spectrophotometry. […] With 24 hours of treatment, TNF-α-induced increments in peak bradykinin response were three-fold greater in diabetics than in controls (P<0.001).
Briefly, fibroblasts from 7 control and 10 diabetic donors (passages 7 to 30) were loaded with fura-2 AM and Ca^2+ mobilization in response to increasing concentrations of bradykinin was determined.
Briefly, paired flasks of cells were treated with TNF-α or left untreated. Fura-loaded cells were stimulated with 20 nM bradykinin and Ca^2+ mobilization was measured after 200 seconds. […] Fibroblasts were fura-2 AM loaded and Ca^2+ mobilization in response to increasing concentrations of bradykinin was determined. Each bar represents the mean of 14 to 33 separate determinations. […]

RPPGFSPFR [bradykinin, reference compound]
bradykinin concentration resulting in detectable Ca2+ mobilization: 20 nM
bradykinin concentration resulting in maximal Ca2+ mobilization (peak response): 200 nM
